According to PMC10948582:
Results are given in words; binding and its absence hold for the method and conditions named. Binding seen in cells or lysates may run through a third protein. Some entries that bind do so weakly or less than the wild type. Sequences can lack the tags named with a protein.

Amino acid sequences for entries named in this document (tags omitted). Residues count along the entry.
UniProt P01033, residues 24-207: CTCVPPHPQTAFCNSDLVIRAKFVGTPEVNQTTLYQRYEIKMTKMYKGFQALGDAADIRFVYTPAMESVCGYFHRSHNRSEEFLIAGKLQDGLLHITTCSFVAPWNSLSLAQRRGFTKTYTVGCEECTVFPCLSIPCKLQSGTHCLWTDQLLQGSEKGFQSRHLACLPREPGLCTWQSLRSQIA

Target: GST-TIMP-1 protein (tissue inhibitor of metalloproteinase 1 fused to GST) (UniProt P01033)
Test: pull-down; GST-TIMP-1 from BL21 as bait, Myc-GnT-V made in HEK293T cells as prey; Pierce GST kit; detection by western blot; only the target purified

B1: Myc-GnT-V protein (N-acetylglucosaminyltransferase V) (enzyme, UniProt Q09328 1-741)
chain: MALFTPWKLSSQKLGFFLVTFGFIWGMMLLHFTIQQRTQPESSSMLREQILDLSKRYIKALAEENRNVVDGPYAGVMTAYDLKKTLAVLLDNILQRIGKLESKVDNLVVNGTGTNSTNSTTAVPSLVALEKINVADIINGAQEKCVLPPMDGYPHCEGKIKWMKDMWRSDPCYADYGVDGSTCSFFIYLSEVENWCPHLPWRAKNPYEEADHNSLAEIRTDFNILYSMMKKHEEFRWMRLRIRRMADAWIQAIKSLAEKQNLEKRKRKKVLVHLGLLTKESGFKIAETAFSGGPLGELVQWSDLITSLYLLGHDIRISASLAELKEIMKKVVGNRSGCPTVGDRIVELIYIDIVGLAQFKKTLGPSWVHYQCMLRVLDSFGTEPEFNHANYAQSKGHKTPWGKWNLNPQQFYTMFPHTPDNSFLGFVVEQHLNSSDIHHINEIKRQNQSLVYGKVDSFWKNKKIYLDIIHTYMEVHATVYGSSTKNIPSYVKNHGILSGRDLQFLLRETKLFVGLGFPYEGPAPLEAIANGCAFLNPKFNPPKSSKNTDFFIGKPTLRELTSQHPYAEVFIGRPHVWTVDLNNQEEVEDAVKAILNQKIEPYMPYEFTCEGMLQRINAFIEKQDFCHGQVMWPPLSALQVKLAEPGQSCKQVCQESQLICEPSFFQHLNKDKDMLKYKVTCQSSELAKDILVPSFDPKNKHCVFQGDLLLFSCAGAHPRHQRVCPCRDFIKGQVALCKDCL
- binding: binds
